Laboratory results taken from patent publication US8962662B2, “Antimicrobial compositions and methods of use thereof” (Byocoat Enterprises, Inc., priority 2011, dated 2015).
Entries after “also recorded” stand apart in the source; their conditions may differ. At least one compound was matched to its structure with a doubt left.

Tested on: Salmonella
Assay: Pathogenic testing for salmonella presence on treated poultry carcass samples after 7 day incubation
Format: cell-based
Method: The following solutions were prepared. A cetylpyridinium chloride (CPC) solution was prepared by combining 1.0 g of cetylpyridinium chloride (CAS No. 123-03-05) in 100 mL of water to form a nominal 1.0 wt % CPC test solution. An epsilon-polylysine (EPL) solution was prepared by combining 4.3 g epsilon-polylysine (CAS No. 25104-18-1) in water to form 100 mL of aqueous solution to form a nominal 4.3 wt % EPL test solution. The combination test solution was prepared by combining 1.0 g of cetylpyridinium chloride and 4.3 g epsilon-polylysine in water to form 100 mL of aqueous solution to form a standard concentration combination solution, and 3.7 g of this standard concentration solution was diluted up to 100 mL to form a combination test solution, which is diluted roughly 27-fold from the from the standard concentration solution.
The following test method was used. Whole poultry carcasses were collected from the processing line following evisceration and rinse. The carcasses were then treated with the CPC, EPL, or combined CPC+EPL products and dilution rates as listed above, using a Lillard spray application for 5 seconds. Following 10 seconds of dwell time, a 25 gram sample of the product was collected and immediately tested to establish a control sample set-point, and 325 grams of the same carcass were incubated at 37° C. for 168 hours (7 days). […]

SMILES: CCCCCCCCCCCCCCCC[n+]1ccccc1 [CPC, cetylpyridinium chloride]
- seven-day samples tested positive for Salmonella (CPC (1.0%) only, 10 samples): 2 of 10
- Salmonella, CPC Day 7 (cetylpyridinium chloride (1.0%), after 7 days at 37° C.): NEGATIVE; also recorded: POSITIVE
